Here are results for one substance from patent US20050209137A1 (published 2005).

Chains of the proteins cited; added tags and fusions are not shown. Lines headed by an entry give the natural chain unless they say otherwise; changes in a name come on top.
UniProt P48357: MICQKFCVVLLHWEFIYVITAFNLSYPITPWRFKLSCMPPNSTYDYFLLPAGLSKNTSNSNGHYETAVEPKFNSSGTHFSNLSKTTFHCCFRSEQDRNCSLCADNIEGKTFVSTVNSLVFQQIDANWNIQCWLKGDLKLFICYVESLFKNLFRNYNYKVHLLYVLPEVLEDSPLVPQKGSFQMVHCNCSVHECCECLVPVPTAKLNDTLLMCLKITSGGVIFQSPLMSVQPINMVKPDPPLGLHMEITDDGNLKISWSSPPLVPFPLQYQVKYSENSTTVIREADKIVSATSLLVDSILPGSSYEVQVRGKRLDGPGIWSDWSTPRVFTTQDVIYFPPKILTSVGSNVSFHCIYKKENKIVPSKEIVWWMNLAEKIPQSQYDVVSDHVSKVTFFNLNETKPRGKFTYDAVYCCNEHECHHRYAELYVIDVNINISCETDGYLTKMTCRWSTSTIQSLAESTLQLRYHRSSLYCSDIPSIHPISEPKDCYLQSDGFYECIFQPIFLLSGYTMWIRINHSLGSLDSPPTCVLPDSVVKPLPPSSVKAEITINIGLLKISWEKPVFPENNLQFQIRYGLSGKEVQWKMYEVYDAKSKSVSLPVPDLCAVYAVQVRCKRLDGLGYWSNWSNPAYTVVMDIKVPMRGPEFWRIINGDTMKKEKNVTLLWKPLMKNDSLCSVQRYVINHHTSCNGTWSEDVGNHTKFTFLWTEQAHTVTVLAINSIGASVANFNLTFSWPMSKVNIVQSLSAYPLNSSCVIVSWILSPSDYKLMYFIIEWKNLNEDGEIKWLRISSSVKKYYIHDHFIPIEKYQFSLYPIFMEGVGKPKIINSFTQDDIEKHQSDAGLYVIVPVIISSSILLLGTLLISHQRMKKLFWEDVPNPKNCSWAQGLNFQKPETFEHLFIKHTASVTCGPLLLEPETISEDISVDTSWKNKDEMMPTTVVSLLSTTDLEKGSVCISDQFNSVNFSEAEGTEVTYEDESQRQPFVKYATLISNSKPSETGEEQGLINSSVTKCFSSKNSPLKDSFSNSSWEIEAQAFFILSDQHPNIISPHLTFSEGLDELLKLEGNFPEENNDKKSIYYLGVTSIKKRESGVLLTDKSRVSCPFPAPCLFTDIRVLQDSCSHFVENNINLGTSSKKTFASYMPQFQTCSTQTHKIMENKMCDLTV
UniProt Q28603: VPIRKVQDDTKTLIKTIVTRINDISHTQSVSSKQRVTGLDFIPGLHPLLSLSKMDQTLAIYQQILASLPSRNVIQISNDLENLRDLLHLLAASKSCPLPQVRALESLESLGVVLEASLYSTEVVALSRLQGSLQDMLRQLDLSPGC

Experiment [1] deals with long form of human leptin receptor, stably transfected in BAF/3 cells (cell homogenate) (human) (UniProt P48357). The experiment in a line: competition with 125I-hLEP, homogenate of BAF/3 cells with long-form human leptin receptor.
The target is the same in experiment [2]. The experiment in a line: competition of unlabeled leptin with 125I-human leptin for binding to homogenate of BAF/3 cells transfected with the long form of human leptin receptor.

Results are given in words; binding and its absence hold for the method and conditions named. Binding calls can cover weak binding; strength is not graded here.

As for “ovine leptin (fraction SP) (from UniProt Q28603 1-146) (ligand)”, the binding result in experiment [1] and in experiment [2] was “binds” in each case.
